# From PubChem BioAssay (EPA / NIEHS)
# The chains behind the UniProt entries cited, without tags or fusion partners. Where a name states a change or a piece, a line headed by the entry shows the natural chain unless it says otherwise.
# UniProt P04799: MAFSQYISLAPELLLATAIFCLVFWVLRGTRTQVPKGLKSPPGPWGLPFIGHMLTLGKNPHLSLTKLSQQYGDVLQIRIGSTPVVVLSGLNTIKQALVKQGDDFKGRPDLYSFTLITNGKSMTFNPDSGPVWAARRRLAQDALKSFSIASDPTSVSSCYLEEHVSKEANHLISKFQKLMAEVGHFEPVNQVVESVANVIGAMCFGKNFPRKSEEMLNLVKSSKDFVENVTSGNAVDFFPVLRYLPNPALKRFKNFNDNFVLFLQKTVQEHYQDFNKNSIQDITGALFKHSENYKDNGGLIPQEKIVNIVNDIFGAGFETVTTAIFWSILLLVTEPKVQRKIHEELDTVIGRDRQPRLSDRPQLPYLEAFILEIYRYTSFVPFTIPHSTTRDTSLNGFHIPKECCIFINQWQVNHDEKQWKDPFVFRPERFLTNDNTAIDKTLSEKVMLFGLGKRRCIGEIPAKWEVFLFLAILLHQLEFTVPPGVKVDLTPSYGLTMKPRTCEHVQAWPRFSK
# UniProt P11510: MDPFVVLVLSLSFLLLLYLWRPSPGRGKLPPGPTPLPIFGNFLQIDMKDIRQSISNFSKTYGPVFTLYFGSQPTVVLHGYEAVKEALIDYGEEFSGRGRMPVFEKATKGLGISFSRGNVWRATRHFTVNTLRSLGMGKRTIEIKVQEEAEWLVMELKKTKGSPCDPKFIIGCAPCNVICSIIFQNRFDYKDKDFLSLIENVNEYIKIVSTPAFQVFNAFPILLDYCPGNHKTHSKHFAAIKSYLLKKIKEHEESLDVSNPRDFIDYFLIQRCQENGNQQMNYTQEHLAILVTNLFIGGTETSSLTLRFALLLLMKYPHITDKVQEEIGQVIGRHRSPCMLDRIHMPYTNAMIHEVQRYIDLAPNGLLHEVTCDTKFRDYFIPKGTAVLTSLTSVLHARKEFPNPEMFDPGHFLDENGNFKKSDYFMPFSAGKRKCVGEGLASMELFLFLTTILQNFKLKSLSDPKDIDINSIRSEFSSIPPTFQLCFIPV
# UniProt P10633: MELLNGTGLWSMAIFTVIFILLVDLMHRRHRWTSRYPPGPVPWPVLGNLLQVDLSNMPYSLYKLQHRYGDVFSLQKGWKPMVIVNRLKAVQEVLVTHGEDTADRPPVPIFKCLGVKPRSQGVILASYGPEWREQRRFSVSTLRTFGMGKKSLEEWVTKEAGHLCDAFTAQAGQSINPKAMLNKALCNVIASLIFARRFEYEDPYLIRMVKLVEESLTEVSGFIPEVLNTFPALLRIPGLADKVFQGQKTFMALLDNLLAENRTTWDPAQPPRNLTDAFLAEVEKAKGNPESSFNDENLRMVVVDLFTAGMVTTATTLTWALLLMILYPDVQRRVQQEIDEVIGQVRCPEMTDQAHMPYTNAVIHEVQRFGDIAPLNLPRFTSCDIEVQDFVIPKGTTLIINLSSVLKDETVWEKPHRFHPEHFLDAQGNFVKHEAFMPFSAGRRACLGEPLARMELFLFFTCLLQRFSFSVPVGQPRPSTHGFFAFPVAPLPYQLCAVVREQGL
# UniProt Q13131: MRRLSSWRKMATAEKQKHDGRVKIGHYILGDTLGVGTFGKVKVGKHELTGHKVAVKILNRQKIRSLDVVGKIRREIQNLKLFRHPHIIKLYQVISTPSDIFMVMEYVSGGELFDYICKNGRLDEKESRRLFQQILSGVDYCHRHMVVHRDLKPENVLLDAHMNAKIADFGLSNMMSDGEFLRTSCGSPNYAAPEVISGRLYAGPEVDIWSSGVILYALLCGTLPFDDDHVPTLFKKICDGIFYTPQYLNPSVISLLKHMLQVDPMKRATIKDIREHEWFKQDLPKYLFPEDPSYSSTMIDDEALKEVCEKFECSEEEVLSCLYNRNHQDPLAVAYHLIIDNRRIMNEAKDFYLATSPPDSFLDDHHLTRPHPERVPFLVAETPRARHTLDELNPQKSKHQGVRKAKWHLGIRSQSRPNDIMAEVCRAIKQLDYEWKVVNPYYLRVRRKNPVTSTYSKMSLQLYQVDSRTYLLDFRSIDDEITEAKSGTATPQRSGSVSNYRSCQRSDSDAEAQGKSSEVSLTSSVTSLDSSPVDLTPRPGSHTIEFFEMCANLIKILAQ
# UniProt P31749: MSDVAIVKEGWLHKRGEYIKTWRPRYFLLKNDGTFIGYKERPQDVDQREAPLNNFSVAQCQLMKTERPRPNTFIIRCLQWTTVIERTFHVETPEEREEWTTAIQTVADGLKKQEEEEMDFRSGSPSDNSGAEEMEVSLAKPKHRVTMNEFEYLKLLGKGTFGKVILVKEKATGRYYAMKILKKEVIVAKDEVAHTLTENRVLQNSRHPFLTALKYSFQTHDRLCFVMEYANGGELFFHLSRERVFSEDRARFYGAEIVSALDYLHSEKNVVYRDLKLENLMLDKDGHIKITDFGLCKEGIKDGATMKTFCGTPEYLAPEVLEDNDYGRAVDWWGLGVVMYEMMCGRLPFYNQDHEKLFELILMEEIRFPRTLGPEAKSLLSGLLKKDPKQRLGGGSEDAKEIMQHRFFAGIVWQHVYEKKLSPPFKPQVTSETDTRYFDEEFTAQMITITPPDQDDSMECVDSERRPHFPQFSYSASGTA
# Where “and” joins values, the source holds several entries; their conditions need not be identical. Equal entries are not always repeated. The inconclusive results got no clear call from the source; some entries with a clear call stand among them for comparison. For some of these results: A potency beside an inconclusive call is a rough fit, not a confirmed value. Calls of active or inactive are those of the source. Rule for the calls: active = hit-call score of the fitted dose curve at least 0.9, where 1 is the maximum; inconclusive = response in the unintended direction; inactive = score below 0.9.
# Target: rat CYP1A2, Cyp1a2 (gene 24297) (UniProt P04799)
# Assay: NVS_ADME_rCYP1A2: NovaScreen (NVS) CYP450-related Enzyme Activity (ADME) Assay for rat CYP1A2 (AID 2283115)
# Outline: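 Primary testing ran in duplicate at 10 uM, with actives re-tested across concentration series. Fluorescence intensity from substrate turnover by recombinant protein, measured 1 hour post-dosing, with signal loss scored against acetonitrile vehicle.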
SMILES,outcome,AC50
N#Cc1c(Cl)c(Cl)c(Cl)c(C#N)c1Cl,inactive,–
CN(C)C(=S)SSC(=S)N(C)C,inactive,–
COP(=S)(OC)Oc1ccc([N+](=O)[O-])cc1,inactive,–
COP(=S)(OC)Oc1ccc([N+](=O)[O-])c(C)c1,inactive,–
COP(=S)(OC)Oc1ccc(Sc2ccc(OP(=S)(OC)OC)cc2)cc1,–,inconclusive: 2.55 µM
Cc1ccc2c(c1N)C(=O)c1ccccc1C2=O,–,inconclusive: 3.07 µM
CON(C)C(=O)Nc1ccc(Cl)c(Cl)c1,inactive,–
Oc1ccc(-c2ccccc2)cc1,–,inconclusive: 5 µM
CCOC(=O)C(SP(=S)(OC)OC)c1ccccc1 (configuration not stated),–,inconclusive: 0.051 µM
COP(=S)(OC)Oc1nc(Cl)c(Cl)cc1Cl,inactive,–
Cc1cc(Cl)ccc1OC(C)C(=O)O (configuration not stated),–,inconclusive: 5 µM
O=[N+]([O-])c1cccc2ccccc12,–,inconclusive: 5 µM
Cc1cc(C2CC2)nc(Nc2ccccc2)n1,inactive,–
CCOP(=O)(OCC)OC(=CCl)c1ccc(Cl)cc1Cl,–,inconclusive: 0.324 µM
O=[N+]([O-])c1ccc(Nc2ccccc2)cc1,–,inconclusive: 3.46 µM
CNC(=O)CSP(=O)(OC)OC,–,inconclusive: 0.00489 µM

# Target: rat CYP2C12, Cyp2c12 (gene 25011) (UniProt P11510)
# Assay: NVS_ADME_rCYP2C12: NovaScreen (NVS) CYP450-related Enzyme Activity (ADME) Assay for rat CYP2C12 (AID 2283119)
# Description: NVS_ADME_rCYP2C12 is a biochemical, single-readout assay that uses extracted gene-proteins in a cell-free assay. Measurements were taken 0.5 hour after chemical dosing in a 96-well plate.NVS_ADME_rCYP2C12 is one of one assay component(s) measured or calculated from the NVS_ADME_rCYP2C12 assay. It is designed to make measurements of enzyme activity, a form of enzyme reporter, as detected with fluorescence intensity signals by Fluorescence technology.Data from the assay component NVS_ADME_rCYP2C12 was analyzed into 1 assay endpoint. This assay endpoint, NVS_ADME_rCYP2C12, was analyzed in the positive analysis fitting direction relative to Acetonitrile as the negative control and baseline of activity. Using a type of enzyme reporter, loss-of-signal activity can be used to understand changes in the enzymatic activity as they relate to the gene Cyp2c12. Furthermore, this assay endpoint can be referred to as a primary readout, because this assay has produced multiple assay endpoints where this one serves a enzymatic activity function. To generalize the intended target to other relatable targets, this assay endpoint is annotated to the cyp intended target family, where the subfamily is xenobiotic metabolism.
# Binding assays used specific radioligands (tritiated, iodinated) with non-radioactive competitive displacement ligands in agonist or antagonist protocols (as indicated) and various reference compounds and inhibitors to titrate specific binding to receptors and transporters. Most enzyme assays (CYPs, kinases, phosphatases, proteases, HDACs) used recombinant protein and specific substrates (fluorescence mostly, some colorimetric and radioactive) and inhibitors, followed by a biochemical separation of substrate and product. All assays for the biochemical HTS were initially run in duplicate at a single concentration (10 uM for CYP450 assays and 25 uM for all others). […] Each assay was run with positive and negative controls, and concurrent controls on every plate. The follow-up (secondary) screen tested active chemical-pairs in concentration series, as well as a few additional assays not tested in the primary screen, some selected negative inactives, and several cases re-run in the concentration series for confirmatory purposes.
SMILES,AC50,outcome
CNC(=S)S,inconclusive: 0.0758 µM,–
N#CC(CCc1ccc(Cl)cc1)(Cn1cncn1)c1ccccc1 (configuration not stated),active: 0.25 µM,–
COC(=O)c1ccccc1C(=O)OC,inconclusive: 11.9 µM,–
O=C1C2CC=CCC2C(=O)N1SC(Cl)(Cl)Cl (configuration not stated),–,inactive
Clc1ccc(C2(Cn3cncn3)CC(Br)CO2)c(Cl)c1 (configuration not stated),active: 11 µM,–

# Target: rat CYP2D1, Cyp2d1 (gene 266684) (UniProt P10633)
# Assay: NVS_ADME_rCYP2D1: NovaScreen (NVS) CYP450-related Enzyme Activity (ADME) Assay for rat CYP2D1 (AID 2283122)
# Outline: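 Rat CYP2D1 enzyme activity measured by fluorescence intensity in a cell-free format, 0.75 h post-dosing, acetonitrile as negative control. Screening at 10 uM in duplicate, with actives followed in concentration series up to 20 uM.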
row,SMILES,AC50
1,CC[C@H](C)[C@H]1O[C@]2(C=C[C@@H]1C)C[C@@H]1C[C@@H](C/C=C(\C)[C@@H](O[C@H]3C[C@H](OC)[C@@H](O[C@H]4C[C@H](OC)[C@@H](NC)[C@H](C)O4)[C@H](C)O3)[C@@H](C)/C=C/C=C3\CO[C@@H]4[C@H](O)C(C)=C[C@@H](C(=O)O1)[C@]34O)O2,inconclusive: 0.458 µM
2,CC(C)(C)C(O)/C(=C\c1ccc(Cl)cc1Cl)n1cncn1 (configuration not stated),active: 0.603 µM
3,COc1ccc(C(c2ccc(OC)cc2)C(Cl)(Cl)Cl)cc1,inconclusive: 10 µM

# Test system: rat CYP3A1, gene 25642
# Assay: NVS_ADME_rCYP3A1: NovaScreen (NVS) CYP450-related Enzyme Activity (ADME) Assay for rat CYP3A1 (AID 2283126)
# Outline: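 Compounds went first at 10 uM duplicate, then to series with 20 uM maximum. Fluorescence from substrate turnover by the recombinant enzyme was measured 0.5 h post-dosing, inhibition scored against acetonitrile vehicle.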
SMILES,AC50,outcome
N#Cc1c(Cl)c(Cl)c(Cl)c(C#N)c1Cl,active: 1.22 µM,–
CNC(=S)S,–,inactive
COP(=S)(OC)Oc1ccc([N+](=O)[O-])c(C)c1,active: 8.22 µM,–
CCCCNC(=O)OCC#CI,active: 1.46 µM and active: 4.29 µM,–

# Target: human AMP-activated Protein Kinase, alpha 1 (AMPKa1), PRKAA1 (gene 5562) (UniProt Q13131)
# Assay: NVS_ENZ_hAMPKa1: NovaScreen (NVS) Enzymatic Assay for human AMP-activated Protein Kinase, alpha 1 (AMPKa1) (AID 2283130)
# Outline: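 Compounds were screened in duplicate at 25 uM, and those reaching ~30% inhibition were titrated up to 50 uM. The enzyme was recombinant human AMPKα1, and kinase turnover was read by fluorescence/mobility shift 1 h post-dosing as loss of signal versus DMSO.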
SMILES,outcome,AC50
CC(C)C(=O)OCC(C)(C)C(OC(=O)C(C)C)C(C)C (configuration not stated),inactive,–
Cc1ccc(-c2c(Cl)nc(C#N)n2S(=O)(=O)N(C)C)cc1,–,inconclusive: 6.6 µM
CC(C)(C)OOC(C)(C)C,–,inconclusive: 0.147 µM
Cc1cc2c3c(c1)C(c1ccccc1)=N[C@@H](NC(=O)c1ccncc1)C(=O)N3CC2,–,inconclusive: 1.35 µM
Cc1cc(C2CC2)nc(Nc2ccccc2)n1,inactive,–
Cc1ccccc1N,–,inconclusive: 25 µM

# Target: human AKT serine/threonine Kinase 1 (AKT1), AKT1 (gene 207) (UniProt P31749)
# Assay: NVS_ENZ_hAKT1: NovaScreen (NVS) Enzymatic Assay for human AKT serine/threonine Kinase 1 (AKT1) (AID 2283138)
# Outline: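 A biochemical assay with recombinant enzyme and specific substrate, read by fluorescence intensity with mobility-shift separation 1 hour after dosing. Actives from 25 uM duplicate screening were titrated up to 50 uM against DMSO baseline.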
SMILES,outcome,AC50
N#Cc1c(Cl)c(Cl)c(Cl)c(C#N)c1Cl,inactive,–
CNC(=S)S,–,inconclusive: 25 µM
CON(C)C(=O)Nc1ccc(Cl)c(Cl)c1,inactive,–
